From PMC7835043
No constants are given. Whether binding was seen depends on the method and setting. Binding seen in cells or lysates may run through a third protein.

By UniProt entry, the sequences of proteins in these tests, tags left out. Residues count along the entry.
UniProt O75460, residues 19-977: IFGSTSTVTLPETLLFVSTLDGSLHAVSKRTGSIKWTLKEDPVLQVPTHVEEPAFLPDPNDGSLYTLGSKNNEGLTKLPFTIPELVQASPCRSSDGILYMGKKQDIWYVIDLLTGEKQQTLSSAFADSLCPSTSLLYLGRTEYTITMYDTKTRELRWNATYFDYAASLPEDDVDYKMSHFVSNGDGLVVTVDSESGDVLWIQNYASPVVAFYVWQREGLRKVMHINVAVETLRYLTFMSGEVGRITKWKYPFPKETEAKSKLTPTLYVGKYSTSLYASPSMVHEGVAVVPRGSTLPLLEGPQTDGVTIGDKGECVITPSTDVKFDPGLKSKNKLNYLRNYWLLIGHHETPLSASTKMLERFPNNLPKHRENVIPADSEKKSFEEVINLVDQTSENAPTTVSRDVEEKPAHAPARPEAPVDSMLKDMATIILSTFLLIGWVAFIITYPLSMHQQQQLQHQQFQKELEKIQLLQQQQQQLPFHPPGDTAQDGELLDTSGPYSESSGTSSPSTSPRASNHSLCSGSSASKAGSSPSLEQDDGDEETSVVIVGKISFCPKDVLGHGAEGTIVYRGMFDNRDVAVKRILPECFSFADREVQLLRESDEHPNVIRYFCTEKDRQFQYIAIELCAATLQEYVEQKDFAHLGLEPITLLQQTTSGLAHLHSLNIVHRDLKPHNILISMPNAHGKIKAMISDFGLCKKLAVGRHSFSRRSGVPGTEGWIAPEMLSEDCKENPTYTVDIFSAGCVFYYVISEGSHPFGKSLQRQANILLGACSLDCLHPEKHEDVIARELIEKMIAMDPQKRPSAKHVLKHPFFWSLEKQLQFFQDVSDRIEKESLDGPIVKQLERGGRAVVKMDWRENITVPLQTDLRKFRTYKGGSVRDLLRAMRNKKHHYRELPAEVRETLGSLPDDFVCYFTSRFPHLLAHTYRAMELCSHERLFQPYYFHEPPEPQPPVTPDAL

Molecular target: T1, coiled-coil domain containing 170 (CCDC170) (human) (UniProt Q8IYT3)
T1 sequence: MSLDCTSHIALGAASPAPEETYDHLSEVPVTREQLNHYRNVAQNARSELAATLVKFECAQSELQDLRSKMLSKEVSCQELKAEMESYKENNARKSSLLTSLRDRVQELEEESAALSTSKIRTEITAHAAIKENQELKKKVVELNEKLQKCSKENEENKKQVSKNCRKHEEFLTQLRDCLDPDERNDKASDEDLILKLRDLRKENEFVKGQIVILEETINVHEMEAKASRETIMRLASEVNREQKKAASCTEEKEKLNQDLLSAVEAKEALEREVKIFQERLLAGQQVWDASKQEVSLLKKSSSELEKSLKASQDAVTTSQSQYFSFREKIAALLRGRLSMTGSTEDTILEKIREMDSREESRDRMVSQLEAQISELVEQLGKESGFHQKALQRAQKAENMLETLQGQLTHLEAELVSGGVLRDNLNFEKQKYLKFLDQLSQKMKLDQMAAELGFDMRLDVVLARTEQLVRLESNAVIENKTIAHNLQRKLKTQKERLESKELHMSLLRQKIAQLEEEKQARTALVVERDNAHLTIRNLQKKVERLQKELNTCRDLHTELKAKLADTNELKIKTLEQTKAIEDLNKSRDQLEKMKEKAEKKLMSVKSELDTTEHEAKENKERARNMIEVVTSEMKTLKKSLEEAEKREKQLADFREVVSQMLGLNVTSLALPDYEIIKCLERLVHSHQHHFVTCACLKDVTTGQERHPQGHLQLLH
Experiment: co-IP; data not presented; cells, antibodies and conditions not told

binding: no binding
Substance: Inositol-requiring enzyme 1 alpha (IRE1α) (from UniProt O75460 19-977)
